Laboratory results as given in publication PMC5912950.
Results are given in words; binding and its absence hold for the method and conditions named. Binding seen in cells or lysates may run through a third protein. Binding calls can cover weak binding; strength is not graded here.

Biological target: T1, Mind Bomb-2 (MIB2), endogenous (human (endogenous in HEK293, MDA-MB-231, HT1080, 786-0)) (UniProt Q96AX9)
T1 sequence: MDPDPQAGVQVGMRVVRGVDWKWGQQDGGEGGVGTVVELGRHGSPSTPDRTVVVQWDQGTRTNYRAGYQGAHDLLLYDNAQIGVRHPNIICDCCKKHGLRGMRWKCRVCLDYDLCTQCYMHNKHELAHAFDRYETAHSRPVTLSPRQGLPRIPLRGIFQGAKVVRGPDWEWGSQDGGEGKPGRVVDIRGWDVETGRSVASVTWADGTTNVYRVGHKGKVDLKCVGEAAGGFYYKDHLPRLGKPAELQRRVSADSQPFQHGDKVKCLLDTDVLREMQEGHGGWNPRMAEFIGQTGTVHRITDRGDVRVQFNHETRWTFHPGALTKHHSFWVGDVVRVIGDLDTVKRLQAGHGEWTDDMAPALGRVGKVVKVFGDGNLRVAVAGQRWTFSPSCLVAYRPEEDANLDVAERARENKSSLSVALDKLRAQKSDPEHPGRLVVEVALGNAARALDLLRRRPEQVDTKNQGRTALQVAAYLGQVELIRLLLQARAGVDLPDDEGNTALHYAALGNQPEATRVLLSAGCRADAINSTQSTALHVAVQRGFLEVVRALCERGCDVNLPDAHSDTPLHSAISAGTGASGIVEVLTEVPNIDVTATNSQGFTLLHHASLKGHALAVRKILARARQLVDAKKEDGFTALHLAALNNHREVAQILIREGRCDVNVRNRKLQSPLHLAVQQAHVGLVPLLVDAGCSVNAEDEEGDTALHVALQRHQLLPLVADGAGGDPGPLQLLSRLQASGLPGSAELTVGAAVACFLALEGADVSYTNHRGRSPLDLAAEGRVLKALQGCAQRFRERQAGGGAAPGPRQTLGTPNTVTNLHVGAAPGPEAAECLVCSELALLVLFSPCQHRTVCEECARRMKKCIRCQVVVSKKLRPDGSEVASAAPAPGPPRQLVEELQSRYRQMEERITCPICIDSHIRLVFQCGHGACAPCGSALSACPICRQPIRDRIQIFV
Experiment: co-IP; immuno-precipitation of endogenous MIB2 with a MIB2 antibody (protein A/G agarose) from MDA-MB-231 or 786-0 cells treated with FLAG-hTNF (0.8 μg/mL) for the indicated times; western blot

binding: binds
Substance: TNF receptor-1 (TNF-R1), endogenous (human (endogenous in MDA-MB-231, 786-0))
